This is one part of the list.

The chains behind the UniProt entries cited, without tags or fusion partners.
UniProt Q0JBA9, entry or part of it: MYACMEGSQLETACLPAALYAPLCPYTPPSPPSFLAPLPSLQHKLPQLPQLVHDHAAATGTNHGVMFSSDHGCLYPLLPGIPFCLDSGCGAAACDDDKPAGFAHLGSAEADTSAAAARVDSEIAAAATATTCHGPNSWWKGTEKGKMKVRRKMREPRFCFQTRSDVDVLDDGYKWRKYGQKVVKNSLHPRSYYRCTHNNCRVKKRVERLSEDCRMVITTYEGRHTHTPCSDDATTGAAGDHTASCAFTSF

The target in the assay is OsWRKY34 (Oryza sativa, UniProt Q0JBA9 1-250). Briefly: protein-binding microarray (RPBM); PBS, 2% BSA, 51.3 ng/ul salmon testes DNA, 50 uM zinc acetate, 200 nM TF, 25 C, 1 h; high values mean tight binding. The following applies: protein: recombinant; tags: N-terminal polyhistidine and DsRed monomer fusion (pET32a); label: CyDye5-dUTP incorporated in the synthesized complementary strand; 3' TTTTT single-stranded linker to array surface; dsDNA, one strand shown. In outline: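 Transcription factors were made in E. coli BL21-CodonPlus as N-terminal fusions to a polyhistidine tag and DsRed, then purified on Ni–NTA. After primer extension with Cy5-dUTP and blocking with 2% BSA, a custom Agilent array was exposed for 1 h at 25 °C to 200 nM protein in PBS, 2% BSA, salmon testes DNA and 50 µM zinc acetate. Washed arrays were scanned on an Axon 4000B, and the binding signal is per-feature fluorescence intensity in arbitrary units.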
“GAGGATGTGTTCTACCTATTTCTGTGGGTTGAGGGAGGTGCGGAGTCACCTAGTGCAG”: the binding signal was 10400 fluorescence intensity (a.u.). Regarding “GATTTGGGAGGGGTCGTTACCGGTGGGGTCCCGGATGCGACGGAGTCACCTAGTGCAG”, the binding signal is 12200 fluorescence intensity (a.u.). Turning to “CCCACCACCACCGCGGTCTCCACTGCGCCACGCTGCTGCCCGGAGTCACCTAGTGCAG”, the binding signal is 10800 fluorescence intensity (a.u.).

As to “TGTCATGTCCATAAACCACATAGGCACAGGCCCAACCAAACGGAGTCACCTAGTGCAG”, the binding signal is 8540 fluorescence intensity (a.u.). “CCATGTGTCCCTGATTTCAAATTTGCTCACACGCACAGCCCGGAGTCACCTAGTGCAG”: the binding signal is 10700 fluorescence intensity (a.u.). For the sequence “CCCCTTCTCTCTTTGTAATTACCTTTTTTTCGGTGAGCTTCGGAGTCACCTAGTGCAG”, the binding signal was 9540 fluorescence intensity (a.u.). The result for “AGCTGACACATATCGTAACCATATCTCATACTATCTCTCTCGGAGTCACCTAGTGCAG” reads 11600 fluorescence intensity (a.u.). Regarding “CACTTTATTTTTGAAAATTCGGGTGGGTAAGCTGGTGACTCGGAGTCACCTAGTGCAG”, the binding signal is 19200 fluorescence intensity (a.u.). On to “TCTGTTTGACATTTCCGAGGATTCTGATTATGCTCATGCTCGGAGTCACCTAGTGCAG”, for which the binding signal was 8800 fluorescence intensity (a.u.). Regarding “CGATTGCCATTGTTCGTGTGTTTTTTCTTGTCTCTTTCCGCGGAGTCACCTAGTGCAG”, the binding signal was 11000 fluorescence intensity (a.u.).

Regarding “GTTTCTTTTTCAGCATTGGCTTTTAAGTCACCGAGAACACCGGAGTCACCTAGTGCAG”, the binding signal was 8240 fluorescence intensity (a.u.). Turning to “GGTAGTGGTGAGAAGAATCAAGGAGTGCCCGATATTTTTACGGAGTCACCTAGTGCAG”, the binding signal was 8020 fluorescence intensity (a.u.).

With “AATTTACACGTAAACTATGTAATTAGTTTTTTTTCACATTCGGAGTCACCTAGTGCAG”, the binding signal was 8670 fluorescence intensity (a.u.). “CCAGTTTTTGTTTTTCTTCATTTTGCTGTATGAACCTCGTCGGAGTCACCTAGTGCAG”: the binding signal was 10400 fluorescence intensity (a.u.). Take “ACGACTCCTTCACCACTTAAGTAATTGATTTTCTGGCGCGCGGAGTCACCTAGTGCAG”: the binding signal was 9060 fluorescence intensity (a.u.). As to “GAGGAAGGTTGATGTATACAGCTTTGGAATTGTCTTGTGGCGGAGTCACCTAGTGCAG”, the binding signal was 8070 fluorescence intensity (a.u.).

With “CCCATTCTAGATATTAACTACTAATCTGACTCTATTTTTTCGGAGTCACCTAGTGCAG”, the binding signal is 8880 fluorescence intensity (a.u.).

As for “CACCATCCCTGGGCCACATCCTATTTTGCCCGTTCGTGCTCGGAGTCACCTAGTGCAG”, the binding signal was 9240 fluorescence intensity (a.u.). Consider “CCCCGCCTAATACCGTCGCCGATATAACCAACCAGTCTAACGGAGTCACCTAGTGCAG”, for which the binding signal was 8820 fluorescence intensity (a.u.). For “ACGTTGATTAGTTAGTACTAACCTACTCCTACGTGTTAACCGGAGTCACCTAGTGCAG”, the binding signal is 8130 fluorescence intensity (a.u.).

Turning to “CCCCAGGCGCTCACCCGCCACATCCGCTCCGCCTGCCTGCCGGAGTCACCTAGTGCAG”, the binding signal was 9030 fluorescence intensity (a.u.). For “TCCTTTGATCGTGTCGTGCCAAGCTGGCCCATCGTGCTAACGGAGTCACCTAGTGCAG”, the binding signal was 9410 fluorescence intensity (a.u.).

Regarding “CTCGACGCTCAGCTCCGCTCCTGTTCCGGCGCCGGCGCCGCGGAGTCACCTAGTGCAG”, the binding signal was 11100 fluorescence intensity (a.u.).

For the sequence “ACGTATTGCCTATAGGCGGAGGGGTGGTGGCGGATGAGTCCGGAGTCACCTAGTGCAG”, the binding signal was 12600 fluorescence intensity (a.u.). As for “GTCATCTCCTCCTCATCTTCTTGCTCTGCTCTGCTTCTTTCGGAGTCACCTAGTGCAG”, the figure is 10000 fluorescence intensity (a.u.). “TATCACTGTACACACTTCGTAATCACCTGGTGCAATGTACCGGAGTCACCTAGTGCAG”: the binding signal is 8490 fluorescence intensity (a.u.).

On to “GGACACGGATATCAGGGTTTGTCTTTTTTTTTTTTTTTTTCGGAGTCACCTAGTGCAG”, for which the binding signal was 8320 fluorescence intensity (a.u.). For the sequence “TCTTCATTCTGTGCTGTGATTCCTTCTCTCACTCTTTTTTCGGAGTCACCTAGTGCAG”, the binding signal was 16400 fluorescence intensity (a.u.). As for “TTTGAGTTTCATTAATTCATTGATCGTATTTGATGTGGACCGGAGTCACCTAGTGCAG”, the binding signal is 8280 fluorescence intensity (a.u.). As for “ATGTTATTATATTTTATTCCGAATTCTAGCGATTTATGTACGGAGTCACCTAGTGCAG”, the figure is 8130 fluorescence intensity (a.u.); as for “CATGTGTTTACTGGGGTGGTTGTTGTAACAAAATTGAGTACGGAGTCACCTAGTGCAG”, 9360 fluorescence intensity (a.u.); as for “TTCAACCTTGGTCACAGGTATGCTTTCCGTCCACGTATTCCGGAGTCACCTAGTGCAG”, 8050 fluorescence intensity (a.u.). With “ACACCGCGATGTCGCTGTTCATCCACTGTTTGTGAATTGTCGGAGTCACCTAGTGCAG”, the binding signal is 8230 fluorescence intensity (a.u.).

Take “AGTTTGTGTGTGTAGGAAAGTTTTGATGTGATGAAAAAGTCGGAGTCACCTAGTGCAG”: the binding signal is 8680 fluorescence intensity (a.u.). “CTCTGCCTGCCCTGCTTCTTGCCCACCACCACCTGTGTCCCGGAGTCACCTAGTGCAG”: the binding signal was 9420 fluorescence intensity (a.u.).

For the sequence “GACGTGGCACATATGTGGCTGATTTGACTCGGTCTTCATCCGGAGTCACCTAGTGCAG”, the binding signal was 8440 fluorescence intensity (a.u.). Consider “GGTGCTCTCCAGTCTCTCTCCTGCTCTCCACCCACACAGCCGGAGTCACCTAGTGCAG”, for which the binding signal is 9720 fluorescence intensity (a.u.). With “GTCCCACATGGTTTATTATTTTTTCGGATCAAATTGCCACCGGAGTCACCTAGTGCAG”, the binding signal is 9650 fluorescence intensity (a.u.). As to “ACTATTTAATTAGCTACTTGTCTTATTGACTATTTTCCAACGGAGTCACCTAGTGCAG”, the binding signal was 9620 fluorescence intensity (a.u.).

On to “TATCTGCATATTTGACACCCGCGGCGCTGCGCTATAAAGACGGAGTCACCTAGTGCAG”, for which the binding signal is 8180 fluorescence intensity (a.u.).

In the case of “TCTTCGTCTACCTCTGTCATGTGCCTGTATCGTACACGCTCGGAGTCACCTAGTGCAG”, the binding signal was 8210 fluorescence intensity (a.u.). For “TCAGATTCTCTCTGCTTGCATTGTGTGTACGCATGTTTTTCGGAGTCACCTAGTGCAG”, the binding signal was 9850 fluorescence intensity (a.u.). Regarding “AACATCGGTATTTAACCTAATCGGCTGCCTTCTATTGACGCGGAGTCACCTAGTGCAG”, the binding signal is 8650 fluorescence intensity (a.u.). The result for “TCCATTCTCGTGCTTTTCAAACTACTAAACGTGTGTTTTTCGGAGTCACCTAGTGCAG” reads 10300 fluorescence intensity (a.u.); that for “GGGAGGGGATGTGCTTCATGATGGACCGCGGCGGCGACCGCGGAGTCACCTAGTGCAG”, 14700 fluorescence intensity (a.u.). As for “AAGCATTCCTCCCTCCCATCCACCACCCGCCTCCGCGCGCCGGAGTCACCTAGTGCAG”, the binding signal was 8160 fluorescence intensity (a.u.). Regarding “CATGTTCATCCTCATTTGACTTGACAATATTATTTCGCCACGGAGTCACCTAGTGCAG”, the binding signal was 9240 fluorescence intensity (a.u.). Consider “TACTTTCGGATAGCTGGTATTCCTTGGTTGTCTCGGAAAACGGAGTCACCTAGTGCAG”, for which the binding signal was 10000 fluorescence intensity (a.u.). Take “CTGCTGCGCTCTCTCCCCGCGCGCGCGCGCGCCTCCCTCCCGGAGTCACCTAGTGCAG”: the binding signal was 8470 fluorescence intensity (a.u.). The result for “TGTAATGTAAGCTTCATCCATAGTATCAGTATATTCTATTCGGAGTCACCTAGTGCAG” reads 9370 fluorescence intensity (a.u.).

Turning to “GGCGGGGCGGATCCGAGGGGCGAAGTGGGTCGGGCGGCGGCGGAGTCACCTAGTGCAG”, the binding signal was 9480 fluorescence intensity (a.u.). Consider “GTTCACGCCGCCGCCACCAATCCTCCCGGCGCCCCAGCCGCGGAGTCACCTAGTGCAG”, for which the binding signal is 8420 fluorescence intensity (a.u.). The result for “CTAATTTACAGCCCGGTTGTACACTGCTCCCAATATTGCTCGGAGTCACCTAGTGCAG” reads 10600 fluorescence intensity (a.u.). For “AGTCCAAAATTTTCATTTATGTCCCGGTTTGATTTTTGGACGGAGTCACCTAGTGCAG”, the binding signal was 9360 fluorescence intensity (a.u.).

The values above are taken from publication PMC7819943, “Rice protein-binding microarrays: a tool to detect cis-acting elements near promoter regions in rice”.
